The values that follow come from PMC12746146.

By UniProt entry, the sequences of proteins in these tests, tags left out. Residues count along the entry.
UniProt Q13308, 31-1070: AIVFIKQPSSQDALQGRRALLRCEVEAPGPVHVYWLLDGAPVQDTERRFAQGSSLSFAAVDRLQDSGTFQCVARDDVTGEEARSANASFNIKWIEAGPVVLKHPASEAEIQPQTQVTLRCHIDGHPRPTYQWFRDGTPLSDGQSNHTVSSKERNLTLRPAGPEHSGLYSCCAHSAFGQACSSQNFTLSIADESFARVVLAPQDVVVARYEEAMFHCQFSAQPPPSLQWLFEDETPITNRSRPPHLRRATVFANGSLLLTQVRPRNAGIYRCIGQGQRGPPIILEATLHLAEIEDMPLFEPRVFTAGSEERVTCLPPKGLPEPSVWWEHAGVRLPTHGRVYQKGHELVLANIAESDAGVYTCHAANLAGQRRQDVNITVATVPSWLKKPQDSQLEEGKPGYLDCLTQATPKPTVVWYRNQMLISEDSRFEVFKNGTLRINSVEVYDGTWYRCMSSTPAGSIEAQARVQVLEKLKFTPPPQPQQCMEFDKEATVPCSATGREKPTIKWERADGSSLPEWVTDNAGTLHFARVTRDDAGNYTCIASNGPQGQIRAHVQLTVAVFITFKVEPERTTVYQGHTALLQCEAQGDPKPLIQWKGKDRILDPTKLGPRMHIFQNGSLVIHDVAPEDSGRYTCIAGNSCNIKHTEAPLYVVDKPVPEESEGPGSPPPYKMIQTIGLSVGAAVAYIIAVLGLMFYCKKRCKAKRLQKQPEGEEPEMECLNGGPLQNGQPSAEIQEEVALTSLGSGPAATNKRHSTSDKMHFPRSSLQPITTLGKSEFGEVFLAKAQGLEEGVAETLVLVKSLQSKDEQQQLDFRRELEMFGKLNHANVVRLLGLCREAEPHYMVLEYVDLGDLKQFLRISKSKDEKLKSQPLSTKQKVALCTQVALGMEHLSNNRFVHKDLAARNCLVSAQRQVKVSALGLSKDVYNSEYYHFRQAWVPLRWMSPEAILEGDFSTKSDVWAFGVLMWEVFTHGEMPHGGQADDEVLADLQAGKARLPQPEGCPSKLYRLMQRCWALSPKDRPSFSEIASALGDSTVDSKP

The target of the data set is PTK7 (on HCT-8 cells) (UniProt Q13308). Nature of the data set: cell binding with single-cell sequencing read-out (bound oligo counts). As to conditions: Ion-seq: 1.0x10^6 cells washed, protein on the cell surface, single-stranded DNA.

Construct, isoform or probe ends are uncertain for at least one entry. Results from cells or extracts need not show a direct contact. Weaker means in comparison with the reference protein, sequence or condition of that experiment.

For “TTGTCTTCCTAAGACCGCTTGGCCTCCGACTTAAAATCTAACTGCTGCGCCGCCGGGAAAATACTGTACGGTTAGAAAAAAAAAAAAAAAAAAAAAAAAAA [Sgc8c-oligo]”, the binding result (200 nM aptamer) is on record as “binds”. “TTGTCTTCCTAAGACCGCTTGGCCTCCGACTTAAAACCTAGCTGCTGCGGCTGCATACTGTACTGTCGAGAAATAGAAAAAAAAAAAAAAAAAAAAAAAAAA [Scramble strand]”: under “counts lower than aptamer group”, the binding result is listed as “binds more weakly”.
